Measurements taken from PubChem BioAssay (EPA / NIEHS).
Several values for one entry are separate records, joined by “and”; a condition that tells them apart may be missing. Equal values may be shown once. The inconclusive results got no clear call from the source; some entries with a clear call stand among them for comparison. For some of these results: Potencies beside an inconclusive call are fits to weak or partial responses and may not hold up. The source holds several records for some structures; these can differ, active in one and inactive in another. Activity calls are given as the source filed them. The calls were made as follows: active = hit-call score of the fitted dose curve at least 0.9, where 1 is the maximum; inconclusive = response in the unintended direction; inactive = score below 0.9.

Protein sequences, listed by entry. Tags and fused reporters are not part of them. Lines headed by an entry give the natural chain unless they say otherwise; changes in a name come on top.
UniProt Q13133, whole entry, looked up: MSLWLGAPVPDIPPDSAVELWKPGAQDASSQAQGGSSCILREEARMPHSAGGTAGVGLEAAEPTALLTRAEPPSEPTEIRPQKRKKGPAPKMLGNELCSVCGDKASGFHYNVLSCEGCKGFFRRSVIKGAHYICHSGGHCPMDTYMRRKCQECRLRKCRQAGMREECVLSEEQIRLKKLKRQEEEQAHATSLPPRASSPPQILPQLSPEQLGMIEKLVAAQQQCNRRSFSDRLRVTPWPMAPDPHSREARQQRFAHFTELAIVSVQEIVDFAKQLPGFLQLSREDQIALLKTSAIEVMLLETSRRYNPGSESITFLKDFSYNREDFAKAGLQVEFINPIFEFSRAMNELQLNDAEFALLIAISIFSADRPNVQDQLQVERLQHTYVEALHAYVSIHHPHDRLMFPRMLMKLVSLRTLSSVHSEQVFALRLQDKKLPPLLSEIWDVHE
UniProt P55055, whole entry, looked up: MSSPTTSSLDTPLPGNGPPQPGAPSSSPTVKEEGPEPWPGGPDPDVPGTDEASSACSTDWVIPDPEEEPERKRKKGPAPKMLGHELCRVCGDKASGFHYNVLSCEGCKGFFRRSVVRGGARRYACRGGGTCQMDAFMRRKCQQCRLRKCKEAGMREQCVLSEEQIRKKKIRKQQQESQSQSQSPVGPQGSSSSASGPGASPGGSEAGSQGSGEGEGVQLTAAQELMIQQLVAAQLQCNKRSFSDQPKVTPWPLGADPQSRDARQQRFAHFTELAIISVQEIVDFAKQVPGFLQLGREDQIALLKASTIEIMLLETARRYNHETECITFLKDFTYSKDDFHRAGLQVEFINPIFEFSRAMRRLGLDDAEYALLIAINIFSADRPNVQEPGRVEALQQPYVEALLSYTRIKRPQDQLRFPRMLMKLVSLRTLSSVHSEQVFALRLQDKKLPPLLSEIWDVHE
UniProt P41235: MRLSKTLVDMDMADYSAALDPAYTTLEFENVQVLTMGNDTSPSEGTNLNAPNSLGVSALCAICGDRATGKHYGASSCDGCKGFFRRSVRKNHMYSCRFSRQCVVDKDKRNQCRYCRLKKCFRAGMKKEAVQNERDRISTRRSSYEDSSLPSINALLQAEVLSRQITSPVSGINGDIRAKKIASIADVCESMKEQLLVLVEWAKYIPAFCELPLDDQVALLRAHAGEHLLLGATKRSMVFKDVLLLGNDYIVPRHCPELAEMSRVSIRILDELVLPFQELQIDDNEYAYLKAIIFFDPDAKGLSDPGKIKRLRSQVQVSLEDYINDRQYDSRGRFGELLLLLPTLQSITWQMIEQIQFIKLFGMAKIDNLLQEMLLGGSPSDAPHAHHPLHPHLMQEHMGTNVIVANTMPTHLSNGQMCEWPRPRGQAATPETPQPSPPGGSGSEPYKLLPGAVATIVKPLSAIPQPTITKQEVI
UniProt P43354, whole entry, looked up: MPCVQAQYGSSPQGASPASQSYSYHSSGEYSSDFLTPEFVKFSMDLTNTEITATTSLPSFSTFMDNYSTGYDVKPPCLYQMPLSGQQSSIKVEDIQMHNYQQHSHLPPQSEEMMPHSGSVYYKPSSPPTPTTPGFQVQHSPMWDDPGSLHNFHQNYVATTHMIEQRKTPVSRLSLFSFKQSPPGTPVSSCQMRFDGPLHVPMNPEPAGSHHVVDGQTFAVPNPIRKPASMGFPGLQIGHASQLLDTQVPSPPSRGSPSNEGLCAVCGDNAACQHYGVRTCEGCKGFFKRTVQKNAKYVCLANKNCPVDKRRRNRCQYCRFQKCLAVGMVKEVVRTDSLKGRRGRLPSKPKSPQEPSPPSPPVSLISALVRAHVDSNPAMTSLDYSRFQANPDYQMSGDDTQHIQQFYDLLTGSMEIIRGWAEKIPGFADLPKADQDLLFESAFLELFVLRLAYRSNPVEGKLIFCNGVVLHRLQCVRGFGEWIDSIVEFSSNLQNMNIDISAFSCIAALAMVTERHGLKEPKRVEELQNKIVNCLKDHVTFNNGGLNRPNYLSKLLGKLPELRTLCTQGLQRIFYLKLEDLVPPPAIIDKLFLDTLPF
UniProt Q07869: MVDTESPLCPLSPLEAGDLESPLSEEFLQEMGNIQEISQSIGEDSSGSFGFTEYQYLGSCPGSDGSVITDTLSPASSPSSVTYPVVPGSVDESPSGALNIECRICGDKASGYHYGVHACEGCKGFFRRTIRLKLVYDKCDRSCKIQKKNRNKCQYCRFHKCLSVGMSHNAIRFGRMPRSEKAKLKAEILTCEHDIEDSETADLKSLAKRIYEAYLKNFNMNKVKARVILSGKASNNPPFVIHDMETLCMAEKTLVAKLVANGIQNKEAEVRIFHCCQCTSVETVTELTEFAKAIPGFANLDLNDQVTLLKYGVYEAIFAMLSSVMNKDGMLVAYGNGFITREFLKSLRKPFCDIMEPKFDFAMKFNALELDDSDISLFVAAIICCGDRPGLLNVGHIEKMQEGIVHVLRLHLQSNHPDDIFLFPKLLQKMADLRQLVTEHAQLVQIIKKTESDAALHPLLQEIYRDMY
UniProt P10826, whole entry, looked up: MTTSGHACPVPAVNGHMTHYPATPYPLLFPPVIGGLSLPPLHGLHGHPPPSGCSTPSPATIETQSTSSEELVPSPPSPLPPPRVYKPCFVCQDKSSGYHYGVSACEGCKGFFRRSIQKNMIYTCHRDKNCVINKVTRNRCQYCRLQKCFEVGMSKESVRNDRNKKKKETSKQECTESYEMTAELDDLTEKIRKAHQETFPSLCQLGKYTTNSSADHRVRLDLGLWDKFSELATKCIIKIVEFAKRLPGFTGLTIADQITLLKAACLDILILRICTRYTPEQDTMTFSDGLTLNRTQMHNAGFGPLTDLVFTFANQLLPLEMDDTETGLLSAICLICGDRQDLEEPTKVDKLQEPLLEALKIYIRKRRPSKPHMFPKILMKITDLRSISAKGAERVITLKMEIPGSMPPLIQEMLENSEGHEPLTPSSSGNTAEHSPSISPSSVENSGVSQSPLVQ
UniProt P10276, whole entry, looked up: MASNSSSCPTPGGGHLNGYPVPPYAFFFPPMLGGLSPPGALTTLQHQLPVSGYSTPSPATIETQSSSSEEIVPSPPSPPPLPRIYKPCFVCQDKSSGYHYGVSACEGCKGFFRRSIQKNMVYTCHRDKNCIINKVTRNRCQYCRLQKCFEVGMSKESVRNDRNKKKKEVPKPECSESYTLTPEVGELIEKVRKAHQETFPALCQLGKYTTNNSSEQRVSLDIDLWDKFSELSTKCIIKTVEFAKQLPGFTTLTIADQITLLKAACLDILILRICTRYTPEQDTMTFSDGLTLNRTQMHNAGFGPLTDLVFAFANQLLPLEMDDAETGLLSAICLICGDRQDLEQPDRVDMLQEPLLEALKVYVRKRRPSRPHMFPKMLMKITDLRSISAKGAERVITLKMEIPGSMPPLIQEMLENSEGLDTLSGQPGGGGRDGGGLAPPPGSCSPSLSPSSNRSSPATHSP
UniProt P13631, whole entry, looked up: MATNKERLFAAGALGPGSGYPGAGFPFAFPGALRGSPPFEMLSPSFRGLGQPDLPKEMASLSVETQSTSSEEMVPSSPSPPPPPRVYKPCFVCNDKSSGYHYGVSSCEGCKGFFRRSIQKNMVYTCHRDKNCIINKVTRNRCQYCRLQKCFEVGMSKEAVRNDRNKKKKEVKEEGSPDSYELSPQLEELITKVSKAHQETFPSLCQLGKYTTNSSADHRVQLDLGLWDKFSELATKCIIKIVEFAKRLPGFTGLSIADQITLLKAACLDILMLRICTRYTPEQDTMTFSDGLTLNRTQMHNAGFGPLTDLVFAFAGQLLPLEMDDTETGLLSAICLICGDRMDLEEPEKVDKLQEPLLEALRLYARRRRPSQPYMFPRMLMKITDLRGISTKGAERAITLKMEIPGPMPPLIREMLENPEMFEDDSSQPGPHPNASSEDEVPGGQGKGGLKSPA
UniProt Q92753: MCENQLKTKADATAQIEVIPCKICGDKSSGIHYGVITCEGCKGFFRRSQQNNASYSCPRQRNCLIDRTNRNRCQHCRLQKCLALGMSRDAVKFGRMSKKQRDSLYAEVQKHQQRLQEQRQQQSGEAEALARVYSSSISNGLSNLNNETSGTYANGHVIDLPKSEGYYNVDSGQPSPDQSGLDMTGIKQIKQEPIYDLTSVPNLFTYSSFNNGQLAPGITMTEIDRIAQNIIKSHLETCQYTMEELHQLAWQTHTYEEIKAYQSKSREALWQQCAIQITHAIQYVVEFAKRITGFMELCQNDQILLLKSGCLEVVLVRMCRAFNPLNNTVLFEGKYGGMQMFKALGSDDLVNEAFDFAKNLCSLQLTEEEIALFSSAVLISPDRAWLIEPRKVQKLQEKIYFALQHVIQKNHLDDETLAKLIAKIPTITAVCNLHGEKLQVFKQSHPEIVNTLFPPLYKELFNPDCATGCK
UniProt P51449: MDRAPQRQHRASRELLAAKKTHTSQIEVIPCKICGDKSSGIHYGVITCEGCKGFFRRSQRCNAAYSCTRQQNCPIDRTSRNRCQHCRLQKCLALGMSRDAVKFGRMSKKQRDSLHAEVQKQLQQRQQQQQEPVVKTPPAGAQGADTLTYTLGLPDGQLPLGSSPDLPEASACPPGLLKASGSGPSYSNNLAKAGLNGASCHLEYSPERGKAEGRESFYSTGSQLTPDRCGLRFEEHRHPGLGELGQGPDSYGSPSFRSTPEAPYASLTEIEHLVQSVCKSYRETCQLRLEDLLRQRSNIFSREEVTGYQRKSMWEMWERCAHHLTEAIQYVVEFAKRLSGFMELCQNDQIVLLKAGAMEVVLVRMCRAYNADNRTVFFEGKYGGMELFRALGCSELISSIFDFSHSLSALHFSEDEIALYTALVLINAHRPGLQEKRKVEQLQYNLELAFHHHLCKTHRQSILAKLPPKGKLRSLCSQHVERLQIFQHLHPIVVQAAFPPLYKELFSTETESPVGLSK
UniProt P28702: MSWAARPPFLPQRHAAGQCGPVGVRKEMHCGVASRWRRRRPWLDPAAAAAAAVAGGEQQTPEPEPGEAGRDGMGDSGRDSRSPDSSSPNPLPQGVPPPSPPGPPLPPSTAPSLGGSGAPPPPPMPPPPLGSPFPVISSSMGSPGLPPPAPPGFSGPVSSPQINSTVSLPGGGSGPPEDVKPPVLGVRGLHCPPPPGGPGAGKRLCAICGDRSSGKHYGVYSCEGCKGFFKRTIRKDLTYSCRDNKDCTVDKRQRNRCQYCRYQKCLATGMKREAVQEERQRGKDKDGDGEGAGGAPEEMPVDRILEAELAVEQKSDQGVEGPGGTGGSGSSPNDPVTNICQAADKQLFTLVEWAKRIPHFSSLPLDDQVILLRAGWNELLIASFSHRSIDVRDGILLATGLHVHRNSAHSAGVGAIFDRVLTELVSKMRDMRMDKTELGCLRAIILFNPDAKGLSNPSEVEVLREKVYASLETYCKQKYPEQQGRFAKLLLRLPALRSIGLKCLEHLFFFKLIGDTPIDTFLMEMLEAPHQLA
UniProt P10827: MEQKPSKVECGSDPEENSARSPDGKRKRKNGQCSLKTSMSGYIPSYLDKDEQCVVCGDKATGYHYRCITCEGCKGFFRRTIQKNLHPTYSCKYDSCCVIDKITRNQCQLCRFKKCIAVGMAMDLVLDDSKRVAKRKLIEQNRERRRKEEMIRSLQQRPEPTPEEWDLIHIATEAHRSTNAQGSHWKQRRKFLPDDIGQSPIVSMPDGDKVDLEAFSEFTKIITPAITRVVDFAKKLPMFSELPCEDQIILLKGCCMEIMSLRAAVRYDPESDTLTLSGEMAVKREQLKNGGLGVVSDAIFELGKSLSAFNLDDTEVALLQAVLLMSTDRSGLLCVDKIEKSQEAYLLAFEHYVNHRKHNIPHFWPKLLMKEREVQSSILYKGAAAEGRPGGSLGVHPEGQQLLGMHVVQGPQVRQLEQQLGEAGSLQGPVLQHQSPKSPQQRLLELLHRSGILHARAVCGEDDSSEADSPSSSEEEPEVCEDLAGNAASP
UniProt P04637, whole entry, looked up: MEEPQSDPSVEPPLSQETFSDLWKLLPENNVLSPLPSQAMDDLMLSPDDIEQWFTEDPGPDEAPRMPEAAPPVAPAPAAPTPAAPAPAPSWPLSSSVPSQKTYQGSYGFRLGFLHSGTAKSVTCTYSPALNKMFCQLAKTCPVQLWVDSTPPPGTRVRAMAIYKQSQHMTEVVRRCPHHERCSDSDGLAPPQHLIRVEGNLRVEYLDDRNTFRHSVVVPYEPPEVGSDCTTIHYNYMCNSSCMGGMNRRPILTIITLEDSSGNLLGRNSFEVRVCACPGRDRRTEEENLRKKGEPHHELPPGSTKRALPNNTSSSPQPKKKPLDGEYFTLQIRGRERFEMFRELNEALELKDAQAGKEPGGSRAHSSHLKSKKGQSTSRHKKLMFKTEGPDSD

Columns and labels:
[1] = ATG_GAL4_TRANS: Attagene TRANS-FACTORIAL HepG2 Assay for GAL4 (Internal Marker) (AID 2282976); settings: HepG2 Attagene TRANS GAL4 internal marker reporter
Summary of the method: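 RT-PCR/capillary electrophoresis readout of reporter mRNA. HepG2, transient MRTU transfection (GAL4-UAS reporters), 24 h compound exposure. Background-control endpoint, positive direction vs DMSO baseline.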

[2] = target: Oxysterols receptor LXR-alpha (Homo sapiens) (UniProt Q13133); experiment: ATG_LXRa_TRANS: Attagene TRANS-FACTORIAL HepG2 Assay for human Liver X Receptor alpha (LXRa) (AID 2282980); settings: HepG2 Attagene TRANS reporter, LXRa transactivation
Summary of the method: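 Read-out: reporter transcript levels by RT-PCR plus capillary electrophoresis, fluorescence intensity. Transiently transfected HepG2, exogenous NR-GAL4 chimera, GAL4-UAS reporters; 24 h compound exposure. Activity = increase over DMSO negative control.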

[3] = target: Oxysterols receptor LXR-beta (Homo sapiens) (UniProt P55055); experiment: ATG_LXRb_TRANS: Attagene TRANS-FACTORIAL HepG2 Assay for human Liver X Receptor beta (LXRb) (AID 2282981); settings: HepG2 Attagene TRANS GAL4-LXRb reporter, mRNA
Summary of the method: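 Measures induction of a Gal4-driven reporter transcript in HepG2 cells expressing an exogenous LXRb-Gal4 fusion. Cells are exposed to compound for 24 h before RNA isolation and RT-PCR with capillary electrophoresis detection.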

[4] = target: Hepatocyte nuclear factor 4-alpha (Homo sapiens) (UniProt P41235); experiment: ATG_HNF4a_TRANS: Attagene TRANS-FACTORIAL HepG2 Assay for human Hepatocyte Nuclear Factor 4 alpha (HNF4a) (AID 2282982); settings: HepG2 HNF4a transactivation reporter, mRNA readout
Summary of the method: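 In this trans-factorial format, a chimeric HNF4a-GAL4 fusion drives a GAL4-UAS reporter in transfected HepG2 liver cells. After 24 h treatment, reporter mRNA induction is measured by RT-PCR with capillary electrophoresis, relative to DMSO.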

[5] = target: Nuclear receptor subfamily 4 group A member 2 (Homo sapiens) (UniProt P43354); experiment: ATG_NURR1_TRANS: Attagene TRANS-FACTORIAL HepG2 Assay for human Nuclear Receptor Related Protein 1 (NURR1) (AID 2282985); settings: HepG2 Attagene TRANS reporter, mRNA readout
Summary of the method: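 Chimeric NR-Gal4 fusion activity measured in HepG2 after 24 h treatment. Reporter transcripts detected by RT-PCR and capillary electrophoresis fluorescence; positive-direction curve fitting against DMSO.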

[6] = target: human Peroxisome Proliferator-activated Receptor alpha (PPARa), PPARA (gene 5465) (UniProt Q07869); experiment: ATG_PPARa_TRANS: Attagene TRANS-FACTORIAL HepG2 Assay for human Peroxisome Proliferator-activated Receptor alpha (PPARa) (AID 2283001);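 as to AC50: potency for gain of reporter signal over DMSO so agonist or activator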
Summary of the method: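 Cells (HepG2) are transfected with multiple reporter transcription units, exposed to chemical for 24 h, then total RNA is reverse-transcribed and amplified. Labelled products are quantified by capillary electrophoresis; induction is referenced to DMSO.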

[7] = target: human Retinoic Acid Receptor beta (RARb), RARB (gene 5915) (UniProt P10826); experiment: ATG_RARb_TRANS: Attagene TRANS-FACTORIAL HepG2 Assay for human Retinoic Acid Receptor beta (AID 2283004)
Summary of the method: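 Readout is reporter mRNA induction: RNA reverse-transcribed, PCR-amplified, FAM-labelled, HpaI-cut and resolved by capillary electrophoresis. Transiently transfected HepG2 cells carrying exogenous NR–Gal4 chimeras were dosed for 24 h; activity fitted upward relative to DMSO.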

[8] = target: Retinoic acid receptor alpha (Homo sapiens) (UniProt P10276); experiment: ATG_RARa_TRANS: Attagene TRANS-FACTORIAL HepG2 Assay for human Retinoic Acid Receptor alpha (RARa) (AID 2283005);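 as to AC50: potency for increased reporter signal meaning RARa activation over DMSO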
Summary of the method: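 HepG2 cells transiently transfected with multiple reporter units expressing chimeric RARα-GAL4 fusion, with GAL4-UAS-driven reporters. After 24 h compound exposure, reporter mRNA induction quantified by RT-PCR and capillary electrophoresis with fluorescent labeling; gain-of-signal fitted relative to DMSO control.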

[9] = target: human Retinoic Acid Receptor gamma (RARg), RARG (gene 5916) (UniProt P13631); experiment: ATG_RARg_TRANS: Attagene TRANS-FACTORIAL HepG2 Assay for human Retinoic Acid Receptor gamma (RARg) (AID 2283009)
Summary of the method: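 TRANS format measured activity of exogenous NR-GAL4 fusion (RARg) in transfected HepG2 liver cells after 24 h dosing. Induced reporter RNA was detected by RT-PCR/capillary electrophoresis fluorescence, analysed in the positive direction against DMSO.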

[10] = target: human RAR-related Orphan Receptor beta (RORb), RORB (gene 6096) (UniProt Q92753); experiment: ATG_RORb_TRANS: Attagene TRANS-FACTORIAL HepG2 Assay for human RAR-related Orphan Receptor beta (RORb) (AID 2283010);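 as to AC50: potency for increased reporter mRNA meaning activation of RORb-Gal4 chimera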
Summary of the method: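 Transfect HepG2 with multiple GAL4-UAS reporter transcription units; dose chemicals for 24 h; isolate RNA, reverse-transcribe and PCR-amplify reporter sequences; label, digest and resolve fragments by capillary electrophoresis; fit increases relative to DMSO.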

[11] = target: human RAR-related Orphan Receptor gamma (RORg), RORC (gene 6097) (UniProt P51449); experiment: ATG_RORg_TRANS: Attagene TRANS-FACTORIAL HepG2 Assay for human RAR-related Orphan Receptor gamma (RORg) (AID 2283011);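 as to AC50: potency for induction of reporter transcripts above DMSO so activators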
Summary of the method: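 Transient MRTU transfection of HepG2 (TRANS format, exogenous NR-Gal4 chimera). 24 h dosing. Total RNA → oligo(dT) RT → PCR → 6-FAM labelling → HpaI cut → CE. Gain vs DMSO.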

[12] = target: Retinoic acid receptor RXR-alpha (Homo sapiens) (UniProt P19793); experiment: ATG_RXRa_TRANS: Attagene TRANS-FACTORIAL HepG2 Assay for human Retinoid X Receptor alpha (RXRa) (AID 2283012)
Summary of the method: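 Measures exogenous chimeric NR-GAL4 activity in transfected HepG2 liver cells after 24 h of dosing. Induced reporter mRNA was detected by RT-PCR with capillary electrophoresis, and gain of signal was analysed against DMSO.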

[13] = target: human Retinoid X Receptor beta (RXRb), RXRB (gene 6257) (UniProt P28702); experiment: ATG_RXRb_TRANS: Attagene TRANS-FACTORIAL HepG2 Assay for human Retinoid X Receptor beta (RXRb) (AID 2283013)
Summary of the method: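 Chimeric receptor-Gal4 activity was assessed in transiently transfected human HepG2 cells after 24 h exposure. Transcripts from GAL4-UAS reporters were quantified by fluorescent RT-PCR and capillary electrophoresis, with DMSO as negative control and baseline.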

[14] = TOX21_p53_BLA_p3_viability: Viability Assessment in the Tox21 HCT-116 p53 Agonism Beta-lactamase Assay, Phase 3 (AID 2283593);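 also: cells exposed to compound for 16 h before reading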
Summary of the method: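 HCT-116 cells (4000/well) rested 5 h at 37C, then got DMSO compounds by pin tool (217-fold dilution) for 16 h at 37C, 5% CO2. After the bla read, CellTiter-Glo was added and luminescence read at 30 min, room temperature.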

[15] = TOX21_p53_BLA_p5_viability: Viability Assessment in the Tox21 HCT-116 p53 Agonism Beta-lactamase Assay, Phase 5 (AID 2283600)
Summary of the method: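 ATP luminescence (CellTiter-Glo, 30 min, RT) served as the viability read-out, with loss of signal indicating cytotoxicity. Compounds in DMSO were pinned at a 217-fold dilution onto 4000 cells/well and incubated 16 h, 37C.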

[16] = ACEA_ER_AUC_viability: ACEA Biosciences xCELLigence Real-Time Cell Analysis on Estrogen Receptor Agonism for Viability (AID 2283782);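 also: hit means loss of impedance signal meaning reduced cell growth or viability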
Summary of the method: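 Continuous-exposure impedance cell analysis uses T-47D cells in charcoal-stripped serum, eight 1:4 dilutions topping at 100 uM final, biological duplicate. Area under the growth curve at 80 h is fitted against DMSO baseline.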

[17] = target: human Thyroid Receptor alpha (THRa1), THRA (gene 7067) (UniProt P10827); experiment: ATG_THRa1_TRANS: Attagene TRANS-FACTORIAL HepG2 Assay for human Thyroid Receptor alpha (THRa1) (AID 2283014)
Summary of the method: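 Transient HepG2 transfection, NR-Gal4 chimera driving GAL4-UAS reporters; 24 h compound exposure; total RNA, oligo(dT) RT, PCR, fluorescent primer extension, capillary electrophoresis. Upward direction vs DMSO control.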

[18] = TOX21_p53_BLA_p2_viability: Viability Assessment in the Tox21 HCT-116 p53 Agonism Beta-lactamase Assay, Phase 2 (AID 2283591);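 also: actives lower the ATP signal meaning cytotoxicity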
Summary of the method: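 HCT-116 p53-bla cells (4000/well) rested 5 h at 37C, then received compounds in DMSO (217-fold dilution) for 16 h at 37C, 5% CO2. After the CCF4 read, CellTiter-Glo was added; ATP luminescence was read after 30 min at room temperature.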

[19] = target: Cellular tumor antigen p53 (Homo sapiens) (UniProt P04637); experiment: TOX21_p53_BLA_p4_ratio: Tox21 HCT-116 p53 Agonism Beta-lactamase Assay, Ratio, Phase 4 (AID 2283601)
Summary of the method: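 HCT116 cells carrying an inducible beta-lactamase reporter were plated at 4000 cells/well, rested 5 h, then exposed to compounds in DMSO (217-fold dilution) for 16 h at 37C. CCF4-AM substrate was loaded 2 h at room temperature; 460/530 nm emission ratio scored gain-of-signal versus DMSO.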

[20] = TOX21_p53_BLA_p4_viability: Viability Assessment in the Tox21 HCT-116 p53 Agonism Beta-lactamase Assay, Phase 4 (AID 2283597);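 also: hits lower the luminescence signal meaning cytotoxicity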
Summary of the method: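 ATP content by CellTiter-Glo luminescence, 30 min RT, read after the beta-lactamase ratio step. Cells: HCT116, 4000/well, compound added after 5 h, exposure 16 h at 37C. Signal loss = reduced viability.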

Measured: AC50

CC1CC(OC(=O)c2ccccc2O)CC(C)(C)C1 (stereo not given)
inconclusive: [1] 100 µM | [4] 16.2 µM | [5] 100 µM | [6] 100 µM | [10] 0.563 µM | [12] 27 µM | [13] 1.74 µM
active: [2] 31.1 µM | [14] 22.5 µM
inactive: [3] | [7] | [8] | [9] | [11] | [14] | [15]

CCCCC[C@H](O)CC(=O)CCc1ccc(O)c(OC)c1
inconclusive: [7] 178 µM | [8] 180 µM | [10] 157 µM | [12] 23.9 µM | [13] 0.264 µM
inactive: [2] | [16]

COc1ccccc1N=Nc1c(S(=O)(=O)O)cc2cc(S(=O)(=O)O)cc(NC(C)=O)c2c1O
inconclusive: [3] 95 µM | [4] 95 µM | [8] 95 µM | [12] 95 µM | [17] 2.27 µM | [18] 43.8 µM | [15] 74.3 µM
inactive: [1] | [2] | [5] | [7] | [10] | [14] | [19]

C#CC(C)(O)CC(C)C (stereo not given)
inconclusive: [1] 100 µM | [5] 100 µM | [7] 0.00914 µM | [8] 100 µM | [11] 8.47 µM | [13] 100 µM | [20] 473 nM | [19] 46.1 µM | [16] 50 µM
inactive: [2] | [4] | [6] | [9] | [10] | [17] | [18] | [14]
